## Primary screen of a compound library

By UniProt entry, the sequences of proteins in these tests, tags left out. Residues count along the entry.
UniProt Q8IDJ8, 1-583: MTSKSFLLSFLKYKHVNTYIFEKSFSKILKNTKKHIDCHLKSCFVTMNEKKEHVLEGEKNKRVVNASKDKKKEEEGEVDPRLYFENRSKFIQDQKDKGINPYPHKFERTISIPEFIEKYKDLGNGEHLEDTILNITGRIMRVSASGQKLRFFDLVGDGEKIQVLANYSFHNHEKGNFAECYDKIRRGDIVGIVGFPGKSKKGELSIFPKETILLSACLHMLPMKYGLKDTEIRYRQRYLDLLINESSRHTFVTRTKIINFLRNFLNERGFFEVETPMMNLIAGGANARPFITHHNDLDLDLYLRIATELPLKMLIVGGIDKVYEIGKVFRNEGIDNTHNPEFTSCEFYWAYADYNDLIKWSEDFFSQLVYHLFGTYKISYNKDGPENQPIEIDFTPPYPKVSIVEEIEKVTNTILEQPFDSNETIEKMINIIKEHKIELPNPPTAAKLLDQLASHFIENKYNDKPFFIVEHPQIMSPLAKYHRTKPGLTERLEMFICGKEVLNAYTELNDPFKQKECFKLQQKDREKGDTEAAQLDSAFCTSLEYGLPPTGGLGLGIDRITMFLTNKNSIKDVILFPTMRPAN
UniProt P9WFT3, whole entry: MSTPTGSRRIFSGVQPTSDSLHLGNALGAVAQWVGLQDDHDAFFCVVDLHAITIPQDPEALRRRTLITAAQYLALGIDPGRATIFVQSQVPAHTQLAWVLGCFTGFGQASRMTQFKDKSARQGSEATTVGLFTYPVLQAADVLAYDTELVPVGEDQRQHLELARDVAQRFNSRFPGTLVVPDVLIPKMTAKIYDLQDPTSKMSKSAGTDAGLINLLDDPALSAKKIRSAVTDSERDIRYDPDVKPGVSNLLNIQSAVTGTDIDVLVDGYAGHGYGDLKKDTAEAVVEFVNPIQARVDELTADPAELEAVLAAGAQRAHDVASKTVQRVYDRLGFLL

A: 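Enzyme assay of the cytosolic lysyl-tRNA synthetase in 384-well plates, read by luminescence. Target: Lysine-tRNA ligase, Plasmodium falciparum 3D7 (UniProt Q8IDJ8). Compounds at 30 µM. Direction is inferred from only a few compounds that gave an IC50; most scored high, so higher reads as stronger inhibition. Size under these conditions: about 69,000 compounds, about 49 of them at 50% or above in at least one test.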
B: 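Enzyme assay of tryptophanyl-tRNA synthetase; the read-out is not stated. Target: Tryptophan-tRNA ligase, Mycobacterium tuberculosis (UniProt P9WFT3). Compounds at 10 µM. Direction is not recorded; retested compounds ran higher, which suggests that high means inhibition. Size under these conditions: about 65,000 compounds, about 64 of them at 50% or above in at least one test.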

Each number is a percent effect as filed. How 0% and 100% were set is not recorded. Most values in the screen are low, and negative values occur. Compounds were drawn at random from those tested, without regard to their results. A dash means the value is not listed here; it may have been measured.

| compound | A | B |
|---|---|---|
| `CN(C)c1nc2c(c(N3CCC(O)CC3)n1)CN(CC(C)(C)C)CC2` | -2.614 | 2.551 |
| `COc1cc(CCC(=O)N2CCC(c3cc4ncc(C)nc4[nH]3)C2)on1` (centres unmarked) | -0.426 | 21.21 |
| `Cc1cccc(-c2ccc(C(=O)NCC3CCCOC3)c(=O)[nH]2)c1` (centres unmarked) | 3.711 | -7.456 |
| `Cc1noc(Cl)c1CC(=O)NCC(C)(O)c1ccc(F)cc1F` (centres unmarked) | -5.211 | 0.6369 |
| `O=C(NCc1cccnc1N1CCCCC1)c1ccc2c(c1)OCO2` | 2.341 | 2.295 |
| `CCOc1ccc(CN2CCC(c3nc(C)cc(C)n3)C2)cc1CO` (centres unmarked) | -1.238 | -0.6911 |
| `CCc1ccc(CN2CCC3(CC(C(=O)NCC(C)C)=NO3)C2)o1` (centres unmarked) | 3.574 | - |
| `O=C(CN1CCCC(Cn2cncn2)C1)NCCC1=CCCCC1` (centres unmarked) | 1.223 | 6.189 |
| `Cn1cc(CN2CCCC23CCN(C(=O)c2cccn2C)CC3)cn1` | 1.544 | -1.822 |
| `CCS(=O)(=O)N1CCCC(Cc2cnccn2)C1` (centres unmarked) | 3.905 | - |
| `CC(O)CN1CCC(CNCc2ccccc2OC(F)(F)F)CC1` (centres unmarked) | -1.243 | -3.638 |
| `CC(C)CC(CCO)CNC(=O)N1CCCC1(C)C` (centres unmarked) | 6.124 | -7.123 |
| `Cc1noc(C(C)C)c1C(=O)N1CCCN(Cc2cscn2)CC1` | 5.319 | -0.8601 |
| `Cc1nc(C)n(CC2CCCN2CC(=O)Nc2ccnn2C(C)C)n1` (centres unmarked) | -2.609 | -3.411 |
| `CCC(CNC1CCN(C(C)=O)CC1)Oc1cccc(C)c1` (centres unmarked) | 2.182 | -8.727 |
| `CCCn1c(C)c(CC(=O)N(C)CCO)c2c1CC(C)(C)CC2=O` | -2.441 | 4.454 |
| `CCOC1CCN(C(=O)NCc2cccc(-n3cccn3)c2)CC1` | 1.395 | -0.7227 |
| `CCC(CC)c1cc(CNC(=O)N2CCCN(C(C)=O)CC2)on1` | 2.169 | -4.661 |
| `CC(CN1CCOCC1)OC(=O)c1ccccc1I` (centres unmarked) | 0.7553 | -1.085 |
| `CCN(CC)Cc1ccc(C(=O)N2CCN(CC(C)O)CC2)o1` (centres unmarked) | -0.5141 | 22.85 |
| `O=C(NC[C@H]1OC[C@@H](NCc2ccccn2)[C@@H]1O)N1CCOCC1` | 2.926 | -4.78 |
| `CN(Cc1ccco1)Cc1cnc2n1CCN(c1ccccn1)CC2` | 5.669 | -2.616 |
| `O=C(Nc1nc2c(s1)CNCC2)C1CC1` | -0.1285 | -2.846 |
| `CCOc1ccccc1C(CC(=O)Nc1ccccc1)NC(C)=O` (centres unmarked) | 0.6635 | 0.5961 |
| `CN(Cc1nnc2ccccn12)C(=O)CCNC(=O)C(C)(C)C` | -4.801 | 5.954 |
| `COC(=O)c1cc2c(=O)[nH]c(=O)n(CCc3ccccc3)c2nc1C` | 0.3159 | 1.967 |
| `CCOc1ccc(NC(C)=O)cc1S(=O)(=O)Nc1nccs1` | 0.4816 | 5.421 |
| `CS(=O)(=O)Nc1ccn(Cc2cccc(F)c2)n1` | 0 | -0.2591 |
| `COCCNC(=O)Cn1c(C)cc2nc(SC)n(CC(C)C)c(=O)c21` | 7.468 | -1.972 |
| `O=C(CCc1ccncc1)Nc1ccc(OCC2CC2)cc1` | 0.01223 | -0.5093 |
| `Cc1cccc(Cc2nc3c([nH]2)CCCNC3=O)c1` | 4.306 | 2.23 |
| `CC(=O)N1CCN(Cc2cccs2)CC2(CC(=O)N(C)C2)C1` (centres unmarked) | 2.93 | -5.638 |
| `CCc1nc(C2CCCN2C(=O)CCCn2cncn2)no1` (centres unmarked) | -0.9682 | -0.4351 |
| `Cc1ccc(N2CCO[C@H]3CN(Cc4cccs4)C[C@H]32)nn1` | 4.843 | -2.827 |
| `CCc1cc(NCc2cccnc2N2CCCCC2)n2ncnc2n1` | 7.65 | -4.364 |
| `CCN1C[C@@H]2[C@@H](OC)CCN(C(=O)Cc3ccsc3)[C@@H]2C1` | 4.369 | -4.506 |
| `CCN1CCCc2cc(CN3CCc4c(nc(C)[nH]c4=O)C3)ccc21` | 0.1959 | -6.285 |
| `O=C(NCc1ccccc1CN1CCC(O)CC1)Nc1cccnc1` | 1.573 | -0.387 |
| `Cc1cn[nH]c1C1COCCN1C(=O)c1ccc2c(c1)CCCC2` (centres unmarked) | 6.68 | -11.57 |
| `CC(C)c1noc(CCCC(=O)N2CCN(Cc3ccsc3)CC2)n1` | 1.529 | -10.21 |
| `O=C(Cn1ccnc1)N1C[C@@H]2CC[C@H](Oc3ccc(Cl)cc3)[C@@H]2C1` | 5.183 | - |
| `Cc1cc(C)nc(CN(C)C(=O)c2ccccc2C2CCNC2)c1` (centres unmarked) | 0.7118 | -6.063 |
| `CC(C)(O)CCc1cccc(C(=O)NCCC2CCOC2)c1` (centres unmarked) | 1.42 | 3.465 |
| `CC(CN1CCOCC1)NC(=O)NCc1cccs1` (centres unmarked) | 2.905 | 0.6517 |
| `COc1c(C)cnc(CSc2nnc(N)s2)c1C` | 8.898 | 3.114 |
| `CC(C(=O)Nc1ccnn1C(C)C)N1CCN(Cc2ccon2)CC1` (centres unmarked) | 3.323 | -3.835 |
| `CCc1cnc(CN(C)C(=O)NC2CCN(c3ccccc3)C2)s1` (centres unmarked) | 3.461 | 1.868 |
| `Cn1ccnc1CN1CCc2ncnc(N3CCCC(C#N)C3)c2CC1` (centres unmarked) | -3.069 | 7.783 |
| `COc1ccc(OC)c(CNC2CCCc3nc(N(C)C)ncc32)c1` (centres unmarked) | 2.538 | -11.12 |
| `c1ccc(C2CCN(c3cncc(-n4cccn4)n3)CC2)cc1` | 5.046 | -3.94 |
| `Cc1ccc(N2CCC3(CCC(=O)N3Cc3ccncc3)CC2)nn1` | 3.382 | - |
| `O=C(Nc1cccc(C(F)(F)F)c1)C1CC(=O)N(Cc2ccccn2)C1` (centres unmarked) | -2.572 | 6.101 |
| `CCOCCCNC(=O)c1cc(C(C)C)nc(N2CCCCCC2)n1` | -1.691 | 4.422 |
| `O=S(=O)(c1cccnc1)N1CCCC1COc1ccccc1` (centres unmarked) | 1.294 | -2.999 |
| `CC(C)=CCCC(C)CN1CCC(n2cc(CO)nn2)CC1` (centres unmarked) | 0.1028 | 3.047 |
| `Cc1cc(-c2cnc(N3CCNC(=O)C3)nc2-c2cccnc2C)on1` | 2.705 | 2.643 |
| `Cn1cccc1C(=O)N1C[C@H]2CN(Cc3cccs3)C[C@H]2C1` | -1.564 | -5.959 |
| `CCC(C(=O)N(Cc1ccccn1)C1CCCCC1)n1cccn1` (centres unmarked) | 1.922 | 1.525 |
| `O=C(c1nnn(-c2ccccc2Cl)c1-c1ccccn1)N1CCSCC1` | 2.003 | -6.155 |
| `COc1cccc(N2CCN(C(=O)CO)CC2=O)c1` | 1.741 | -4.122 |
| `CCCS(=O)(=O)N1CCC2(CCC(=O)N(Cc3ccccc3)C2)CC1` | -1.042 | 0.4841 |
| `COCCCN1CCCC(c2nccn2CC2CCC2)C1` (centres unmarked) | -0.1331 | 0.1514 |
| `Cc1nc(Nc2cnccn2)cc(C2CCN(CCO)C2)n1` (centres unmarked) | -0.2966 | - |
| `CCc1oc(C(=O)N[C@@H]2c3ccccc3C[C@@H]2O)cc1C` | -0.3986 | 1.924 |
| `Cn1cc(CN(Cc2ccccc2)CC(O)c2cccs2)cn1` (centres unmarked) | 4.746 | -5.532 |
| `C[C@@H]1C[C@H]2CN(C(=O)C3=CCCCC3)C[C@H]2O1` | 0.7801 | -3.638 |
| `Cc1cnn(CC(C)NCc2cc(=O)n3cc(C)ccc3n2)c1` (centres unmarked) | 5.169 | -9.417 |
| `COCCN(C)[C@@H]1c2ccccc2C2(CCNCC2)[C@H]1O` | 0.3032 | -3.298 |
| `CC(C)NC(=O)C1CCN(Cn2ccc(-c3ccc(F)cc3)n2)CC1` | -3.652 | 7.476 |
| `COCC1c2c(cnn2CC2CC2)CCN1Cc1ccsc1` (centres unmarked) | -1.486 | -13.39 |
| `O=C1NCC2(CCCN(Cc3cccnc3)C2)Oc2ccccc21` (centres unmarked) | 2.451 | - |
| `Cc1cc(C2CCC2)nc(N2CCC3(CCCN(C)C3=O)C2)n1` (centres unmarked) | 2.865 | 5.791 |
| `O=C(O)c1ccccc1-c1ccc(CNC(=O)C2CCOCC2)cc1` | -0.08537 | -3.179 |
| `Cc1nc(COC[C@@H]2CCC[C@@]23CNCCO3)cs1` | -1.924 | 7.766 |
| `Cc1noc(CNC(=O)NCCOc2ccc(Cl)cc2)n1` | -1.933 | -3.179 |
| `CCn1ncc(Nc2[nH]cnc3nc(C)nc2-3)c1C` | -0.2744 | -1.06 |
| `CCCc1nc(CNC(=O)Cc2cc(C)no2)cs1` | 3.565 | -1.154 |
| `CSc1ccccc1NC(=O)C1CN(C(=O)c2ccc3c(c2)OCO3)C1` | 3.48 | 0.618 |
| `CCN(CCNC(=O)c1cccc(C)c1C)C1CC1` | -0.8816 | 2.224 |
| `CN1CCc2[nH]cnc2C12CCN(C(=O)CCc1cccs1)CC2` | -0.4501 | 2.418 |
| `CCCc1n[nH]c(C2CN(C(=O)CCCn3cccn3)CCO2)n1` (centres unmarked) | 2.732 | -5.687 |
| `O=C1CC2(CCCC2)CC(=O)N1Cc1ncccn1` | -5.781 | 1.424 |
| `CC(OCC(F)(F)F)C(=O)NCc1ccc(-n2cncn2)nc1` (centres unmarked) | 7.21 | 0.2346 |
| `Cc1cc(Cc2ccccc2C)cc(C2CCCNC2)n1` (centres unmarked) | 2.039 | -0.6342 |

The last 8 entries again:

With CCCc1nc(CNC(=O)Cc2cc(C)no2)cs1 the screen gave A: 3.565%; B: -1.154%.
With CSc1ccccc1NC(=O)C1CN(C(=O)c2ccc3c(c2)OCO3)C1 the screen gave A: 3.48%; B: 0.618%.
With CCN(CCNC(=O)c1cccc(C)c1C)C1CC1 the screen gave A: -0.8816%; B: 2.224%.
With CN1CCc2[nH]cnc2C12CCN(C(=O)CCc1cccs1)CC2 the screen gave A: -0.4501%; B: 2.418%.
With CCCc1n[nH]c(C2CN(C(=O)CCCn3cccn3)CCO2)n1 (centres unmarked) the screen gave A: 2.732%; B: -5.687%.
With O=C1CC2(CCCC2)CC(=O)N1Cc1ncccn1 the screen gave A: -5.781%; B: 1.424%.
With CC(OCC(F)(F)F)C(=O)NCc1ccc(-n2cncn2)nc1 (centres unmarked) the screen gave A: 7.21%; B: 0.2346%.
With Cc1cc(Cc2ccccc2C)cc(C2CCCNC2)n1 (centres unmarked) the screen gave A: 2.039%; B: -0.6342%.

Measurements from “University of Dundee, Small-Polar-MMV Screening Library” (2021), ChEMBL document CHEMBL3988442.